Data reported in doi:10.1101/2025.08.22.671882.
Results are given in words; binding and its absence hold for the method and conditions named. In cells and extracts the contact can be indirect. Some entries that bind do so weakly or less than the wild type. For some of these results: Where a sequence is shown, tags or fusion partners need not be part of it.

Amino acid sequences for entries named in this document (tags omitted). A change or cut given only in a name is not applied to a line headed by its entry. Chains listed by the source or under a name are the forms on record and can include a tag or linker.
UniProt Q07955: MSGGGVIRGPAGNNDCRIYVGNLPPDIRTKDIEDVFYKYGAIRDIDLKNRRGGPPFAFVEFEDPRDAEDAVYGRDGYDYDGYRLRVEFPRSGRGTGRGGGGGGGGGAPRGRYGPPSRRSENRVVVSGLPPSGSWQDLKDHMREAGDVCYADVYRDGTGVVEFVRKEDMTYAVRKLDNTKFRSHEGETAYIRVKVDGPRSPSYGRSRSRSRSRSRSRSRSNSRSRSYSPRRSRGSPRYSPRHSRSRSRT
T7-tagged SRSF1 inactivated RRM1 mutant (FFDD) (Q07955, form named): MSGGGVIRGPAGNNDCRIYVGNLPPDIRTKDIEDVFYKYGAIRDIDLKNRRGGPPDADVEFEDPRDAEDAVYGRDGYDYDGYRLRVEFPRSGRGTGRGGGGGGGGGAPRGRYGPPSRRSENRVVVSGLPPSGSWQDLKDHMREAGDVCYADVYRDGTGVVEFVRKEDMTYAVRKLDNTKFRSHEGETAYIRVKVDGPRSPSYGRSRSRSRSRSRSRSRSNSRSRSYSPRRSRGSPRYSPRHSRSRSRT

What was measured:
Assay in all cases: co-IP
[1] = target: T7-tagged SRSF1 inactivated RRM1 mutant (FFDD) (UniProt Q07955)
[2] = target: T7-tagged SRSF1 (unmutated) expressed in 293T cells (UniProt Q07955)
[3] = target: T7-tagged SRSF1 expressed in SUIT-2 cells (UniProt Q07955)
[4] = target: SRSF1 (serine/arginine-rich splicing factor 1), endogenous (human (endogenous in SUIT-2 and PANC-1)) (UniProt Q07955)

Row | Binder | binding [1] | binding [2] | binding [3] | binding [4]
1 | Flag-USP39 (enzyme, UniProt Q53GS9 1-565) MSGRSKRESRGSTRGKRESESRGSSGRVKRERDREREPEAASSRGSPVRVKREFEPASAREAPASVVPFVRVKREREVDEDSEPEREVRAKNGRVDSEDRRSRHCPYLDTINRSVLDFDFEKLCSISLSHINAYACLVCGKYFQGRGLKSHAYIHSVQFSHHVFLNLHTLKFYCLPDNYEIIDSSLEDITYVLKPTFTKQQIANLDKQAKLSRAYDGTTYLPGIVGLNNIKANDYANAVLQALSNVPPLRNYFLEEDNYKNIKRPPGDIMFLLVQRFGELMRKLWNPRNFKAHVSPHEMLQAVVLCSKKTFQITKQGDGVDFLSWFLNALHSALGGTKKKKKTIVTDVFQGSMRIFTKKLPHPDLPAEEKEQLLHNDEYQETMVESTFMYLTLDLPTAPLYKDEKEQLIIPQVPLFNILAKFNGITEKEYKTYKENFLKRFQLTKLPPYLIFCIKRFTKNNFFVEKNPTIVNFPITNVDLREYLSEEVQAVHKNTTYDLIANIVHDGKPSEGSYRIHVLHHGTGKWYELQDLQVTDILPQMITLSEAYIQIWKRRDNDETNQQGA | binds | binds |  | 
2 | USP39, endogenous (enzyme, UniProt Q53GS9 1-565) MSGRSKRESRGSTRGKRESESRGSSGRVKRERDREREPEAASSRGSPVRVKREFEPASAREAPASVVPFVRVKREREVDEDSEPEREVRAKNGRVDSEDRRSRHCPYLDTINRSVLDFDFEKLCSISLSHINAYACLVCGKYFQGRGLKSHAYIHSVQFSHHVFLNLHTLKFYCLPDNYEIIDSSLEDITYVLKPTFTKQQIANLDKQAKLSRAYDGTTYLPGIVGLNNIKANDYANAVLQALSNVPPLRNYFLEEDNYKNIKRPPGDIMFLLVQRFGELMRKLWNPRNFKAHVSPHEMLQAVVLCSKKTFQITKQGDGVDFLSWFLNALHSALGGTKKKKKTIVTDVFQGSMRIFTKKLPHPDLPAEEKEQLLHNDEYQETMVESTFMYLTLDLPTAPLYKDEKEQLIIPQVPLFNILAKFNGITEKEYKTYKENFLKRFQLTKLPPYLIFCIKRFTKNNFFVEKNPTIVNFPITNVDLREYLSEEVQAVHKNTTYDLIANIVHDGKPSEGSYRIHVLHHGTGKWYELQDLQVTDILPQMITLSEAYIQIWKRRDNDETNQQGA |  |  | binds | binds
